# Results from PubChem BioAssay AID2052 (NMMLSC, 2009).
# Some of the results follow.
# Test: modulators of CD8 T cell-vesicle binding, primary screen, mouse 2C CD8+ T cells, flow cytometry (AID 2052);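 note: binding gate set so that unloaded-vesicle control wells show 10% double positive cells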
# Details: 2C CD8+ T cell-vesicle binding, measured here: CD8+ vesicle-bound cell fraction, at 7 µM, stronger effect = lower value
# Method in brief: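 Material: murine 2C transgenic CD8+ T lymphocytes / Also added: QL9-peptide-loaded Drosophila micro-vesicles bearing Ld, ICAM-1 and B7-1 / Schedule: binding step 1.5 h, 37 °C, antibody labelling 20 min, ice / Signal: flow cytometry, PE anti-B7-1 (FL2) versus Alexa647 anti-CD8 (FL8), PFA-fixed / Evaluation: percent CD8+ FL2 mean versus row control / Benchmarks: naked versus QL9-loaded vesicles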
row,SMILES,double positive events [%]
1,O=P(Nc1ccccn1)(c1ccc(Br)cc1)c1ccc(Br)cc1,62.6
2,Cc1ccccc1NP(C)(=O)Nc1ccccc1C,57.2
3,CP(=O)(Nc1ccc2c(c1)OCCO2)Oc1ccccc1 (stereo not given),30.3
4,CCOP(C)(=S)SCC(=O)NC(C)(CC)C(=O)O (stereo not given),13.4
5,c1nnnn1CCn1cnnn1,48.6
6,CP(=O)(Nc1ccc(SC(F)(F)F)cc1)Oc1ccc(F)cc1 (stereo not given),28.4
7,O=P(Nc1nccs1)(c1ccccc1)c1ccccc1,34
8,CC(C)C(=O)NC(Sc1ccccc1)C(Cl)(Cl)Cl (stereo not given),40.3
9,CC1(CBr)Cn2c(nc3ccccc3c2=O)S1 (stereo not given),8.3
10,Cc1nc2ccc3ccccc3c2s1.O=[N+]([O-])c1cc([N+](=O)[O-])c(O)c([N+](=O)[O-])c1,34.1
11,O=[As](O)(c1ccccc1Br)c1ccccc1Br,63.3
12,CN(C(=O)Cc1ccc(Cl)c(Cl)c1)[C@@H]1CCCC[C@H]1N1CCCC1,27.2
13,CC(C)/C=N\N=C(\N)N[N+](=O)[O-],29
14,COc1ccccc1CNC(=O)COC(=O)C(O)(c1ccccc1)c1ccccc1,26.6
15,O=[N+]([O-])c1cc([N+](=O)[O-])c(-c2cnn(-c3ccccc3)c2)c([N+](=O)[O-])c1,20.1
16,CC(C)(C)C(=O)NC(Sc1ncccn1)C(Cl)(Cl)Cl (stereo not given),9.6
17,Clc1n[nH]nc1-c1nn[nH][15n]1,29.1
18,CCOP(=O)(Nc1ccc(C)cn1)OCC,39.2
19,CN(CCCl)Cc1cc(Cl)c(NC2=NCCN2)c(Cl)c1,36.4
20,O=[N+]([O-])c1cc([N+](=O)[O-])c(-n2nnc3ccccc32)c([N+](=O)[O-])c1,60.6

row,SMILES,double positive events [%]
1,CCOP(=O)(NC(=NC(C)c1ccccc1)NC(C)c1ccccc1)OCC (stereo not given),19.7
2,CCC1=CC2Cc3nc4ccc(Cl)cc4c(N)c3C(C1)C2 (stereo not given),62.5
3,O=P1(Nc2ccccn2)COc2ccccc2OC1,40.2
4,Cc1ccc(OCC(=O)OC2CN3CCC2CC3)cc1 (stereo not given),36.1
5,NS(=O)(=O)c1cccc(NC(=O)COC(=O)C(O)(c2ccccc2)c2ccccc2)c1,9.3
6,O=P1(Nc2ccc(Br)cn2)COc2ccccc2OC1,41.9
7,CCCOc1ccc(NP(C)(=O)Oc2ccc(Cl)cc2)cc1 (stereo not given),45.6
8,Nc1cccc([As](=O)(O)c2ccccc2)c1,33.1
9,CP(=O)(Nc1ccc(SC(F)(F)F)cc1)Oc1ccccc1 (stereo not given),5.7
10,COc1ccccc1OP(C)(=O)Nc1c(C)cccc1C (stereo not given),32.7
11,O=P1(Nc2ncccn2)COc2ccccc2OC1,18.7
12,O=C(/C=C/c1ccccc1)OC1CN2CCC1CC2 (stereo not given),48.9
13,CCOC(=O)C(CC)C1=NC(C)(C)Cc2ccccc21.O=[N+]([O-])c1cc([N+](=O)[O-])c(O)c([N+](=O)[O-])c1 (stereo not given),35.5
14,CC1=C2N=C(C=C3N=C(C(C)=C4[N-][C@@](C)([C@@H]5N=C1[C@](C)(CCC(=O)NC[C@@H](C)OP(=O)([O-])O[C@H]1[C@@H](O)[C@@H](n6cnc7cc(C)c(C)cc76)O[C@@H]1CO)[C@H]5CC(N)=O)[C@@](C)(CC(N)=O)[C@@H]4CCC(N)=O)[C@@](C)(CC(N)=O)[C@@H]3CCC(N)=O)C(C)(C)[C@@H]2CCC(N)=O.[C-]#N.[Co+3],33.4
15,O=[N+]([O-])c1cc([N+](=O)[O-])c(Nc2nnnn2CCO)c([N+](=O)[O-])c1,51.4
16,COc1cc(C2NCCC3(OCCO3)C2(C)C)cc(OC)c1OC.O=[N+]([O-])c1cc([N+](=O)[O-])c(O)c([N+](=O)[O-])c1 (stereo not given),41.7
17,Cc1ccc(C(=O)OC2CN3CCC2CC3)cc1 (stereo not given),24.3
18,CC1CCC(C(C)C)C(OP(=O)(Nc2ccccn2)c2ccccc2)C1 (stereo not given),55
19,Cc1nn(-c2ccccc2)c2c1P(=O)(N1CCOCC1)N(C)C(c1ccccc1)=N2 (stereo not given),11.4
20,CC1=NCCc2c1[nH]c1ccccc21.O=[N+]([O-])c1cc([N+](=O)[O-])c(O)c([N+](=O)[O-])c1,39.8

row,SMILES,double positive events [%]
1,CN(C(=O)Cc1ccc(Cl)c(Cl)c1)[C@H]1CC[C@@]2(CCCO2)C[C@@H]1N1CCCC1,24.2
2,O=[N+]([O-])c1ccc2c(c1)nnn2O,34.7
3,CN(C)C(=O)c1cc([N+](=O)[O-])cc2c1-c1c(cc([N+](=O)[O-])cc1[N+](=O)[O-])C2=O,25.6
4,CCOP1(=S)c2c(C)nn(CCC#N)c2N=C(c2ccc(F)cc2)N1C (stereo not given),29.7
5,CN(C(=O)Cc1ccccc1)[C@@H]1CC[C@]2(CCCO2)C[C@H]1N1CCCC1,23.5
6,N#CCCN(C(=O)COC(=O)C(O)(c1ccccc1)c1ccccc1)c1ccc(F)cc1,29.2
7,NC(=O)Nc1ccc([As](=O)(O)O)cc1,25.5
8,O=C(O)COc1ccc([As](=O)(O)O)cc1[N+](=O)[O-],44.5
9,Nc1ccccc1[As](=O)(O)c1ccccc1,51.6
10,CS(=O)(=O)c1cc([N+](=O)[O-])c2no[n+]([O-])c2c1,32.2
11,O=P(Nc1nccs1)(Oc1ccccc1)Oc1ccccc1,39.1
12,O=C(O)c1cccc(Nc2c([N+](=O)[O-])cc([N+](=O)[O-])cc2[N+](=O)[O-])c1,14.9
13,CCOP1(=S)c2c(C)nn(CCC#N)c2N=C(c2ccccc2F)N1C (stereo not given),42.7
14,CCOP(=O)(Nc1cccc2ccccc12)OCC,49.1
15,Cc1ccc(C)c(NP(C)(=O)Oc2ccccc2)c1 (stereo not given),30.1
16,CCCOP(=S)(Nc1nc(N)cc(=O)[nH]1)OCCC,57.6
17,Cc1ccc(NCCc2c([N+](=O)[O-])cc([N+](=O)[O-])cc2[N+](=O)[O-])cc1,26.8
18,Nc1cccc2c([As](=O)(O)O)cccc12,64.7
19,Cc1cc(C)cc(OP(C)(=O)Nc2ccccn2)c1 (stereo not given),32.5
20,CP(=O)(Nc1cccc(Br)c1)Oc1ccccc1 (stereo not given),23.1
